# This is one part of the list.
# B1: PGP3 (Chlamydia trachomatis), P0CE18 (protein)
# chain: MGNSGFYLYNTQNCVFADNIKVGQMTEPLKDQQIILGTTSTPVAAKMTASDGISLTVSNNPSTNASITIGLDAEKAYQLILEKLGDQILGGIADTIVDSTVQDILDKITTDPSLGLLKAFNNFPITNKIQCNGLFTPRNIETLLGGTEIGKFTVTPKSSGSMFLVSADIIASRMEGGVVLALVREGDSKPYAISYGYSSGVPNLCSLRTRIINTGLTPTTYSLRVGGLESGVVWVNALSNGNDILGITNTSNVSFLEVIPQTNA
# How the values were obtained:
# Assay in all cases: glycan array binding signal (z-score within array); higher = stronger binding
# Conditions in all cases: glycan notation: IUPAC condensed, linker removed
# [1] = target: Fuc(a1-2)[GalNAc(a1-3)]Gal(b1-4)Glc
# Method in brief: (§1)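 Negative Z-scores can be read as non-binding. The Z-score is calculated within each array and then averaged across arrays of one protein sequence at different concentrations or buffers and across linkers. Arrays, 3228 in all, were curated from the Consortium for Functional Glycomics database and kept only where the protein sequence was available.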
# [2] = target: Fuc(a1-2)[GalNAc(a1-3)]Gal(b1-4)GlcNAc
# Method in brief: as §1
# [3] = target: Fuc(a1-2)[GalNAc(a1-3)]Gal(b1-4)GlcNAc(b1-2)Man(a1-3)[Fuc(a1-2)[GalNAc(a1-3)]Gal(b1-4)GlcNAc(b1-2)Man(a1-6)]Man(b1-4)GlcNAc(b1-4)GlcNAc
# Method in brief: as §1
# [4] = target: Fuc(a1-2)[GalNAc(a1-3)]Gal(b1-4)GlcNAc(b1-2)Man(a1-3)[Fuc(a1-2)[GalNAc(a1-3)]Gal(b1-4)GlcNAc(b1-2)Man(a1-6)]Man(b1-4)GlcNAc(b1-4)[Fuc(a1-6)]GlcNAc
# Method in brief: as §1
# [5] = target: Fuc(a1-2)[GalNAc(a1-3)]Gal(b1-4)GlcNAc(b1-3)Gal(b1-4)GlcNAc
# Method in brief: as §1
# [6] = target: Fuc(a1-2)[GalNAc(a1-3)]Gal(b1-4)GlcNAc(b1-3)Gal(b1-4)GlcNAc(b1-3)Gal(b1-4)GlcNAc
# Method in brief: as §1
# [7] = target: Fuc(a1-2)[GalNAc(a1-3)]Gal(b1-4)GlcNAc(b1-3)GalNAc
# Method in brief: as §1
# [8] = target: Fuc(a1-2)[GalNAc(a1-3)]Gal(b1-4)[Fuc(a1-3)]GlcNAc
# Method in brief: as §1
# [9] = target: Fuc(a1-2)[GalNAc(a1-3)]Gal(b1-4)[Fuc(a1-3)]GlcNAc(b1-3)GalNAc
# Method in brief: as §1
# [10] = target: Fuc(a1-2)[GalNAc(a1-4)]Gal(b1-4)GlcNAc
# Method in brief: as §1
# [11] = target: Fuc(a1-2)[GalNAc(b1-3)]Gal
# Method in brief: as §1
# [12] = target: Fuc(a1-3)GlcNAc
# Method in brief: as §1
# [13] = target: Fuc(a1-3)[Gal(b1-4)]Glc6S
# Method in brief: as §1
# [14] = target: Fuc(a1-3)[Gal(b1-4)]GlcNAc
# Method in brief: as §1
# [15] = target: Fuc(a1-3)[Gal(b1-4)]GlcNAc(b1-2)Man(a1-3)[Fuc(a1-3)[Gal(b1-4)]GlcNAc(b1-2)Man(a1-6)]Man(b1-4)GlcNAc(b1-4)GlcNAc
# Method in brief: as §1
# [16] = target: Fuc(a1-3)[Gal(b1-4)]GlcNAc(b1-2)Man(a1-3)[Fuc(a1-3)[Gal(b1-4)]GlcNAc(b1-2)Man(a1-6)]Man(b1-4)GlcNAc(b1-4)[Fuc(a1-6)]GlcNAc
# Method in brief: as §1
# [17] = target: Fuc(a1-3)[Gal(b1-4)]GlcNAc(b1-3)Gal(b1-3)[Fuc(a1-4)]GlcNAc
# Method in brief: as §1
# [18] = target: Fuc(a1-3)[Gal(b1-4)]GlcNAc(b1-3)GalNAc
# Method in brief: as §1
# [19] = target: Fuc(a1-3)[Gal(b1-4)]GlcNAc(b1-4)Gal(b1-4)[Fuc(a1-3)]GlcNAc
# Method in brief: as §1
# [20] = target: Fuc(a1-3)[Gal(b1-4)]GlcNAc(b1-4)Gal(b1-4)[Fuc(a1-3)]GlcNAc(b1-4)Gal(b1-4)[Fuc(a1-3)]GlcNAc
# Method in brief: as §1
# [21] = target: Fuc(a1-3)[Gal(b1-4)]GlcNAc(b1-6)GalNAc
# Method in brief: as §1
# [22] = target: Fuc(a1-3)[Gal(b1-4)]GlcNAc(b1-6)[Gal(b1-3)GlcNAc(b1-3)]Gal(b1-4)Glc
# Method in brief: as §1
# [23] = target: Fuc(a1-3)[Gal(b1-4)]GlcNAc(b1-6)[Neu5Ac(a2-3)Gal(b1-3)]GalNAc
# Method in brief: as §1
# [24] = target: Fuc(a1-3)[Gal(b1-4)]GlcNAc6S
# Method in brief: as §1
# [25] = target: Fuc(a1-3)[Gal3S(b1-4)]GlcNAc
# Method in brief: as §1
# [26] = target: Fuc(a1-3)[Gal3S(b1-4)]GlcNAc6S
# Method in brief: as §1
# [27] = target: Fuc(a1-3)[GalNAc(b1-4)]GlcNAc
# Method in brief: as §1
# [28] = target: Fuc(a1-4)GlcNAc
# Method in brief: as §1
# [29] = target: Fuc(b1-3)GlcNAc
# Method in brief: as §1
# [30] = target: Gal(a1-2)Gal
# Method in brief: as §1
# [31] = target: Gal(a1-3)Gal
# Method in brief: as §1
# [32] = target: Gal(a1-3)Gal(b1-3)GlcNAc
# Method in brief: as §1
# [33] = target: Gal(a1-3)Gal(b1-3)GlcNAc(b1-2)Man(a1-3)[Gal(a1-3)Gal(b1-3)GlcNAc(b1-2)Man(a1-6)]Man(b1-4)GlcNAc(b1-4)GlcNAc
# Method in brief: as §1
# [34] = target: Gal(a1-3)Gal(b1-3)GlcNAc(b1-3)GalNAc
# Method in brief: as §1
# [35] = target: Gal(a1-3)Gal(b1-3)[Fuc(a1-4)]GlcNAc(b1-2)Man(a1-3)[Gal(a1-3)Gal(b1-3)[Fuc(a1-4)]GlcNAc(b1-2)Man(a1-6)]Man(b1-4)GlcNAc(b1-4)GlcNAc
# Method in brief: as §1
# [36] = target: Gal(a1-3)Gal(b1-4)Glc
# Method in brief: as §1
# [37] = target: Gal(a1-3)Gal(b1-4)GlcNAc
# Method in brief: as §1
binder,measurement,setting,value
B1,glycan array binding signal (z-score),[1],1.44
same,glycan array binding signal (z-score),[2],-0.962
same,glycan array binding signal (z-score),[3],1.11
same,glycan array binding signal (z-score),[4],1.55
same,glycan array binding signal (z-score),[5],0.028
same,glycan array binding signal (z-score),[6],-0.302
same,glycan array binding signal (z-score),[7],0.429
same,glycan array binding signal (z-score),[8],0.36
same,glycan array binding signal (z-score),[9],-0.028
same,glycan array binding signal (z-score),[10],-1.54
same,glycan array binding signal (z-score),[11],-0.986
same,glycan array binding signal (z-score),[12],1.41
same,glycan array binding signal (z-score),[13],-0.759
same,glycan array binding signal (z-score),[14],1.09
same,glycan array binding signal (z-score),[15],2.78
same,glycan array binding signal (z-score),[16],-0.169
same,glycan array binding signal (z-score),[17],-0.101
same,glycan array binding signal (z-score),[18],-1.38
same,glycan array binding signal (z-score),[19],0.789
same,glycan array binding signal (z-score),[20],1.29
same,glycan array binding signal (z-score),[21],0.264
same,glycan array binding signal (z-score),[22],0.419
same,glycan array binding signal (z-score),[23],0.65
same,glycan array binding signal (z-score),[24],1.22
same,glycan array binding signal (z-score),[25],0.127
same,glycan array binding signal (z-score),[26],-1.42
same,glycan array binding signal (z-score),[27],0.584
same,glycan array binding signal (z-score),[28],-0.063
same,glycan array binding signal (z-score),[29],0.047
same,glycan array binding signal (z-score),[30],-0.594
same,glycan array binding signal (z-score),[31],0.842
same,glycan array binding signal (z-score),[32],-0.446
same,glycan array binding signal (z-score),[33],-1.59
same,glycan array binding signal (z-score),[34],0.477
same,glycan array binding signal (z-score),[35],-1.01
same,glycan array binding signal (z-score),[36],-0.22
same,glycan array binding signal (z-score),[37],-0.531

# Another view of some results above.
binder | measurement | setting | value
B1 | glycan array binding signal (z-score) | [13] | -0.759
same | glycan array binding signal (z-score) | [14] | 1.09
same | glycan array binding signal (z-score) | [15] | 2.78
